Survivor count and T/C data for 10 compounds are collected here from PubChem BioAssay AID328 (DTP/NCI, 2004).

For this assay, the system named is BDF1 mice, P388 leukemia ip, median survival T/C. The experiment in a line: NCI In Vivo Anticancer Drug Screen. Data for tumor model P388 Leukemia (intraperitoneal) in B6D2F1 (BDF1) mice. The conditions noted are these: higher T/C = longer survival. The essentials: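 In tumour-bearing mice, survival after compound treatment is set against the vehicle group and given as a quotient.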

Setting [1] is: T/C endpoint: median survival time, dose: 200.0 mg/kg/injection, schedule: Q01DX009 (ip), vehicle: saline with Tween-80.

The list is a part of this screen's results and no random one: it gathers tests that were run many times, whatever their T/C, doses with no T/C, and many T/C values between a quarter and a half above the control. Other doses and runs of a compound stand elsewhere. T/C is the treated group as % of the vehicle group. Some doses have a count of surviving animals in place of a T/C: the source files T/C as zero there, which appears to mark a toxic dose or a test without result, not a measured value. Some doses without a T/C left all or most animals alive at the check, yet need not have been tolerated: survival well below the control is almost never listed, so the zero probably covers shortened survival too. Survivors were counted at the toxicity check, usually on the fifth day, unless a day is given; later deaths do not show. Schedules are NCI's codes, taken here to give the interval after Q, in days (D) or hours (H), and the number of doses after X. Some entries hold several experiments; their values stand side by side, smallest first. Where survival is the endpoint, the PubChem record calls one and a half times the control and up active, and a quarter to a half above the control has no call in these data; cut-offs in other NCI protocols can differ. Some T/C values carry the count of animals alive at the toxicity check (mostly the fifth day); where none is given, no animal had died by that day.

Consider `Cc1c(C)c(O)c2c(c1O)C(=O)C=C(Cl)C2=O`, for which the survivor count reads like this: (T/C endpoint: median survival time, dose: 50.0 mg/kg/injection, schedule: Q04DX003 (ip), vehicle: saline with Tween-80) 0 of 6; (T/C endpoint: median survival time, dose: 100.0 mg/kg/injection, schedule: Q04DX003 (ip), vehicle: saline with Tween-80) 2 of 6; (T/C endpoint: median survival time, dose: 200.0 mg/kg/injection, schedule: Q04DX003 (ip), vehicle: saline with Tween-80) 0 of 6; (T/C endpoint: median survival time, dose: 400.0 mg/kg/injection, schedule: Q04DX003 (ip), vehicle: saline with Tween-80) 0 of 6.
On to `CCS(=O)(=O)CCN1C(=O)CN=C(c2ccccc2F)c2cc(Cl)ccc21`, for which the survivor count under setting [1] was 0 of 6.
For the compound `C/C=C1\C(=O)O[C@@]23C=C[C@H]4C(C(=O)OC)=CO[C@@H](O[C@H]12)[C@H]43`, the T/C is, setting by setting: (T/C endpoint: median survival time, dose: 1.25 mg/kg/injection, schedule: Q01DX009 (ip), vehicle: saline) 145 % of control [5 of 6 alive]; (T/C endpoint: median survival time, dose: 5.0 mg/kg/injection, schedule: Q01DX009 (ip), vehicle: saline) 125 % of control. Besides, the survivor count (T/C endpoint: median survival time, dose: 310.0 micrograms/kg/injection, schedule: Q01DX009 (ip), vehicle: Klucel (hydroxypropylcellulose) (HPC)) was 2 of 3.
Turning to `C[C@@H]1CC[C@@]2(NC1)O[C@H]1C[C@H]3[C@@H]4CC=C5C[C@@H](O)CC[C@]5(C)[C@H]4CC[C@]3(C)[C@H]1[C@@H]2C`, the survivor count under setting [1] is 4 of 6.
On to `CCOc1ccc(C(/C(Cl)=N/O)C(Cl)(Cl)Cl)cc1` (stereo unspecified), for which the T/C runs as follows: (T/C endpoint: median survival time, dose: 12.5 mg/kg/injection, schedule: Q01DX009 (ip), vehicle: acetone) 136 % of control; (T/C endpoint: median survival time, dose: 25.0 mg/kg/injection, schedule: Q01DX009 (ip), vehicle: acetone) 147 % of control. Further, the survivor count is, setting by setting: (T/C endpoint: median survival time, dose: 50.0 mg/kg/injection, schedule: Q01DX009 (ip), vehicle: acetone) 5 of 6; (T/C endpoint: median survival time, dose: 180.0 mg/kg/injection, schedule: Q04DX003 (ip), vehicle: Klucel (hydroxypropylcellulose) (HPC)) 6 of 6.
On to `CC1(C)C(=O)C(O)=C[C@H]2C1=CC[C@@H]1[C@]2(C)C(=O)C[C@]2(C)[C@@H]([C@@](C)(O)C(=O)CC(O)C(C)(C)O)C(O)C[C@@]12C` (stereo partly specified), for which the survivor count (T/C endpoint: mean survival time, dose: 4.5 mg/kg/injection, schedule: Q01DX010 (ip), vehicle: carboxymethylcellulose (CMC)) is 6 of 6. Besides, for the setting “T/C endpoint: mean survival time, dose: 9.0 mg/kg/injection, schedule: Q01DX010 (ip), vehicle: carboxymethylcellulose (CMC)”, the T/C was 126 % of control.
On to `Cn1c(=O)oc2ccc(Cl)cc21`, for which, under “T/C endpoint: median survival time, dose: 100.0 mg/kg/injection, schedule: Q01DX009 (ip), vehicle: saline with Tween-80”, the survivor count is listed as 6 of 6.
Take `O=C(O)CNC(=O)CNC(=O)C(Br)Cc1ccccc1` (stereo unspecified): the survivor count reads like this: (T/C endpoint: median survival time, dose: 200.0 mg/kg/injection, schedule: Q04DX003 (ip), vehicle: Klucel (hydroxypropylcellulose) (HPC)) 6 of 6; (T/C endpoint: median survival time, dose: 400.0 mg/kg/injection, schedule: Q04DX003 (ip), vehicle: Klucel (hydroxypropylcellulose) (HPC)) 6 of 6.
As to `C/C=C(\C)C(=O)OC1C(C)C2(O)C(C=C(CO)CC3(O)C(=O)C(C)=CC32)C2C(C)(C)C12OC(=O)CCCCCCCCC` (stereo unspecified), the survivor count reads like this: (T/C endpoint: median survival time, dose: 0.02 mg/kg/injection, schedule: Q01DX009 (ip), vehicle: saline + alcohol) 4 of 4; (T/C endpoint: median survival time, dose: 0.06 mg/kg/injection, schedule: Q01DX009 (ip), vehicle: saline with Tween-80) 4 of 4; (T/C endpoint: median survival time, dose: 0.12 mg/kg/injection, schedule: Q01DX009 (ip), vehicle: saline with Tween-80) 4 of 4; (T/C endpoint: median survival time, dose: 0.25 mg/kg/injection, schedule: Q01DX009 (ip), vehicle: gum acacia) 4 of 4; (T/C endpoint: median survival time, dose: 0.25 mg/kg/injection, schedule: Q01DX009 (ip), vehicle: saline with Tween-80) 3 of 4; (T/C endpoint: median survival time, dose: 0.5 mg/kg/injection, schedule: Q01DX009 (ip), vehicle: gum acacia) 4 of 4. The survivor count (T/C endpoint: median survival time, dose: 0.5 mg/kg/injection, schedule: Q01DX009 (ip), vehicle: saline + alcohol) is 1 of 4 and 3 of 6; the survivor count (T/C endpoint: median survival time, dose: 0.5 mg/kg/injection, schedule: Q01DX009 (ip), vehicle: saline with Tween-80) is given as 0 of 4; the survivor count (T/C endpoint: median survival time, dose: 1.0 mg/kg/injection, schedule: Q01DX009 (ip), vehicle: gum acacia) is on record as 0 of 4; the survivor count (T/C endpoint: median survival time, dose: 1.0 mg/kg/injection, schedule: Q01DX009 (ip), vehicle: saline + alcohol) was 0 of 4 and 0 of 6; the survivor count (T/C endpoint: median survival time, dose: 1.0 mg/kg/injection, schedule: Q01DX009 (ip), vehicle: saline with Tween-80) is reported as 0 of 4; the survivor count (T/C endpoint: median survival time, dose: 2.0 mg/kg/injection, schedule: Q01DX009 (ip), vehicle: gum acacia) is listed as 0 of 4. The survivor count was 0 of 4 (T/C endpoint: median survival time, dose: 2.0 mg/kg/injection, schedule: Q01DX009 (ip), vehicle: saline + alcohol) and 0 of 4 (T/C endpoint: median survival time, dose: 2.0 mg/kg/injection, schedule: Q01DX009 (ip), vehicle: saline with Tween-80). The T/C (T/C endpoint: median survival time, dose: 0.02 mg/kg/injection, schedule: Q01DX009 (ip), vehicle: saline with Tween-80) is 125 % of control; the T/C (T/C endpoint: median survival time, dose: 0.03 mg/kg/injection, schedule: Q01DX009 (ip), vehicle: saline + alcohol) was 133 % of control; the T/C (T/C endpoint: median survival time, dose: 0.03 mg/kg/injection, schedule: Q01DX009 (ip), vehicle: saline with Tween-80) was 125 % of control; the T/C (T/C endpoint: median survival time, dose: 0.06 mg/kg/injection, schedule: Q01DX009 (ip), vehicle: gum acacia) was 136 % of control; the T/C (T/C endpoint: median survival time, dose: 0.06 mg/kg/injection, schedule: Q01DX009 (ip), vehicle: saline + alcohol) is 135 % of control; the T/C (T/C endpoint: median survival time, dose: 0.12 mg/kg/injection, schedule: Q01DX009 (ip), vehicle: gum acacia) was 136 % of control [3 of 4 alive]. Also, the T/C was 127 [3 of 4 alive], 133, 135 % of control (T/C endpoint: median survival time, dose: 0.12 mg/kg/injection, schedule: Q01DX009 (ip), vehicle: saline + alcohol); 140 and 143 % of control (T/C endpoint: median survival time, dose: 0.25 mg/kg/injection, schedule: Q01DX009 (ip), vehicle: saline + alcohol).
Consider `CN(CO)c1nc(N(C)CO)nc(N(C)CO)n1`, for which, under “T/C endpoint: median survival time, dose: 50.0 mg/kg/injection, schedule: Q01DX005 (ip), vehicle: saline”, the T/C is 135 % of control.
